Laboratory results as given in patent publication US8252507B2, “Photoactive compound and photosensitive resin composition comprising the same” (LG Chem, Ltd., priority 2008, dated 2012).

Experiment: Sensitivity measurement: acrylate conversion by FT-IR before and after exposure
Conditions: 1 g photoinitiator in composition, 2.5 μm film, high-pressure mercury lamp 20 mW/cm^2 for 5 sec

Row | Compound | Acrylate conversion (%)
1 | CCn1c2ccc(C(=O)c3ccccc3C)cc2c2cc(/C(C)=N/OC(C)=O)ccc21 [Comparative Example 1] | 38
2 | CC(=O)O/N=C(\C)c1ccc(-c2nc(C(Cl)(Cl)Cl)nc(C(Cl)(Cl)Cl)n2)cc1 [Comparative Example 2, 2,4-trichloromethyl-(4′-acetylphenylacetoxime)-6-triazine] | 36
3 | CC(=O)O/N=C/c1ccc(-c2ccc(-c3nc(C(Cl)(Cl)Cl)nc(C(Cl)(Cl)Cl)n3)cc2)cc1 [Comparative Example 3, 2,4-trichloromethyl-(4′-formylbiphenylacetoxime)-6-triazine] | 39
4 | CCn1c2ccc(C(=O)c3ccc(OCC4COC(C)(C)O4)cc3)cc2c2cc(/C(CC(c3ccccc3)N(OC(C)=O)C(C)=O)=N/OC(C)=O)ccc21 (stereo not shown) [Example 1] | 40
